We go through 3 molecules from patent US20040018580A1, “Synthetic substrates for prostasin” (priority 2002, published 2004).

Amino acid sequences for entries named in this document (tags omitted). Residues count along the entry.
UniProt Q16651, residues 33-322: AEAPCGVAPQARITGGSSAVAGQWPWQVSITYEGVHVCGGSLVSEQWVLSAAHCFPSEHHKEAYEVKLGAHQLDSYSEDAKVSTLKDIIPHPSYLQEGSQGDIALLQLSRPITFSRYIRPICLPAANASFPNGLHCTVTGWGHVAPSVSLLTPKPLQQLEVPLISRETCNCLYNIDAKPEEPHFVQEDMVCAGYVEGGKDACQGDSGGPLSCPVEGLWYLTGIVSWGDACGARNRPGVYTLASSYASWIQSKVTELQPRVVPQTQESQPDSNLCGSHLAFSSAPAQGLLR

Results are given in words; binding and its absence hold for the method and conditions named. Some entries that bind do so weakly or less than the wild type. For some of these results: Where a sequence is shown, tags or fusion partners need not be part of it.

For assay [1], the target named is T1, prostasin (Homo sapiens, UniProt Q16651). Description: incubation with prostasin, SDS-PAGE and immunoblot. A general note: A western blot detects proteins with antibodies after separation by electrophoresis.
In assay [2] the target is T1, prostasin. The experiment in a line: prostasin-binding assay, SDS-PAGE and western blot.
The target in assay [3] is T1, prostasin. Description: complex formation at different pH, western blot.

B1: GST-hPN-1 (protein, human, UniProt P07093 20-398, looked up, not shown: a dimerising Fc or GST)
chain: SHFNPLSLEELGSNTGIQVFNQIVKSRPHDNIVISPHGIASVLGMLQLGADGRTKKQLAMVMRYGVNGVGKILKKINKAIVSKKNKDIVTVANAVFVKNASEIEVPFVTRNKDVFQCEVRNVNFEDPASACDSINAWVKNETRDMIDNLLSPDLIDGVLTRLVLVNAVYFKGLWKSRFQPENTKKRTFVAADGKSYQVPMLAQLSVFRCGSTSAPNDLWYNFIELPYHGESISMLIALPTESSTPLSAIIPHISTKTIDSWMSIMVPKRVQVILPKFTAVAQTDLKEPLKVLGITDMFDSSKANFAKITTGSENLHVSHILQKAKIEVSEDGTKASAATTAILIARSSPPWFIVDRPFLFFIRHNPTGAVLFMGQINKP
B1: the binding entry in the assay with prostasin [1] is listed as “binds”.

B2: mouse prostasin-binding protein (mPBP) (protein, UniProt Q07235 20-397, looked up)
chain: SQFNSLSLEELGSNTGIQVFNQIIKSRPHENVVVSPHGIASILGMLQLGADGKTKKQLSTVMRYNVNGVGKVLKKINKAIVSKKNKDIVTVANAVFLRNGFKMEVPFAVRNKDVFQCEVQNVNFQDPASASESINFWVKNETRGMIDNLLSPNLIDGALTRLVLVNAVYFKGLWKSRFQPESTKKRTFVAGDGKSYQVPMLAQLSVFRSGSTRTPNGLWYNFIELPYHGESISMLIALPTESSTPLSAIIPHITTKTIDSWMNTMVPKRMQLVLPKFTAVAQTDLKEPLKALGITEMFEPSKANFTKITRSESLHVSHILQKAKIEVSEDGTKASAATTAILIARSSPPWFIVDRPFLFSIRHNPTGAILFLGQVNKP
Take B2: the binding result with prostasin [2] and in the assay with prostasin [3] was “binds” each time.

B3: GST-mPN-1 (protein, mouse, UniProt Q07235 20-397, looked up, not shown: a dimerising Fc or GST)
chain: B2 chain
As to B3, in the assay with prostasin [1], the binding result was “binds”.
